{
  "sequences": {"note": "The chains behind the UniProt entries cited, without tags or fusion partners. Where a name states a change or a piece, a line headed by the entry shows the natural chain unless it says otherwise.", "UniProt O95297": "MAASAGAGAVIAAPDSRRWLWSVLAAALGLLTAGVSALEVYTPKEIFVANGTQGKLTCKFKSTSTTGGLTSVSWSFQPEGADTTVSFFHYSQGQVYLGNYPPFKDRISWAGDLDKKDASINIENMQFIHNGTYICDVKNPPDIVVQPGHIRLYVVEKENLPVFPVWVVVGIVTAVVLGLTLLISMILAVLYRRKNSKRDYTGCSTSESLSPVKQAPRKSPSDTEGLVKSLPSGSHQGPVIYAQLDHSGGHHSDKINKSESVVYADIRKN", "UniProt Q6P1Q9": "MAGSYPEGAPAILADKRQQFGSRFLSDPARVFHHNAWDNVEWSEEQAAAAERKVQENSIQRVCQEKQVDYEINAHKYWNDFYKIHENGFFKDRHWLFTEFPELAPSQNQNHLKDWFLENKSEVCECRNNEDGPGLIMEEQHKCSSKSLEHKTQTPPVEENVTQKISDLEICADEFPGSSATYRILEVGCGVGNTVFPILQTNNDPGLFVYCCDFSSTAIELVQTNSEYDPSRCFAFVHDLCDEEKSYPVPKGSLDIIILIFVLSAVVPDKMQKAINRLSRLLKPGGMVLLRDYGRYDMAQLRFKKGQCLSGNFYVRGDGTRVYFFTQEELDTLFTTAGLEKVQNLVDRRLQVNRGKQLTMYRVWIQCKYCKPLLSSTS", "UniProt P14649": "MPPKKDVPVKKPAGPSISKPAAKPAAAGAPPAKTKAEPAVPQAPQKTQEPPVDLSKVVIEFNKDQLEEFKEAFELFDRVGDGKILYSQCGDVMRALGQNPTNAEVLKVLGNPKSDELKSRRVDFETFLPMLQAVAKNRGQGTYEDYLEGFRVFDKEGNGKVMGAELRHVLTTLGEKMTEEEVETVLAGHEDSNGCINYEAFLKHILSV", "UniProt Q9BRX9": "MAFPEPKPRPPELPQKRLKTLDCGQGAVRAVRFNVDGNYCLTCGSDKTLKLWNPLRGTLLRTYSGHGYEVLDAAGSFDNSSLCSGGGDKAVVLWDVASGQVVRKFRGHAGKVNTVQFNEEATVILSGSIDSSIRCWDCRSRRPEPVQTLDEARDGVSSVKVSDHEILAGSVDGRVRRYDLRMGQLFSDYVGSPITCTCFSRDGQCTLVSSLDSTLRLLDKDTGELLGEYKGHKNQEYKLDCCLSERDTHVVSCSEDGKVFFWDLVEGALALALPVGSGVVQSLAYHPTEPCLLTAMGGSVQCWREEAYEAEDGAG", "UniProt Q5VVJ2": "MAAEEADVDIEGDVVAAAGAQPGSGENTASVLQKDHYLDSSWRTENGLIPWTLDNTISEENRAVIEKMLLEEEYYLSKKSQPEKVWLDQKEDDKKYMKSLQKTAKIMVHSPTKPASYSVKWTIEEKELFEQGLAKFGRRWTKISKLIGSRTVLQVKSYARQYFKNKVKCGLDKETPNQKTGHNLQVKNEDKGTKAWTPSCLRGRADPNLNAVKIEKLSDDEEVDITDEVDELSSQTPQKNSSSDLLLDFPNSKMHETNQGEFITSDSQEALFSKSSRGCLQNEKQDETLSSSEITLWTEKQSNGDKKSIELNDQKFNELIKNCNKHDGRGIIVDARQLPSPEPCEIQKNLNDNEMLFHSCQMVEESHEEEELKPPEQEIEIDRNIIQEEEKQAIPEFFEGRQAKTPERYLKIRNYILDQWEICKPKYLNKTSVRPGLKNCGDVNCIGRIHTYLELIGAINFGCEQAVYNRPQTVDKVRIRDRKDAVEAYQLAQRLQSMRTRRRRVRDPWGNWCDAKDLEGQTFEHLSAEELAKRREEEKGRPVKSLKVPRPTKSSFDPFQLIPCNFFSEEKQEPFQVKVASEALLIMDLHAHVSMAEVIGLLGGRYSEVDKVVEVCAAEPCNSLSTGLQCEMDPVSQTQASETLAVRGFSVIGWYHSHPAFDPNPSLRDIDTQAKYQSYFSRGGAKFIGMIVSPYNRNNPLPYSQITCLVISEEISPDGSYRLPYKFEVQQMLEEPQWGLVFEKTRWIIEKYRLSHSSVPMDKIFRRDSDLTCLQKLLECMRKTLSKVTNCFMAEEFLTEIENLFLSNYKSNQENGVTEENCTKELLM", "UniProt P34949": "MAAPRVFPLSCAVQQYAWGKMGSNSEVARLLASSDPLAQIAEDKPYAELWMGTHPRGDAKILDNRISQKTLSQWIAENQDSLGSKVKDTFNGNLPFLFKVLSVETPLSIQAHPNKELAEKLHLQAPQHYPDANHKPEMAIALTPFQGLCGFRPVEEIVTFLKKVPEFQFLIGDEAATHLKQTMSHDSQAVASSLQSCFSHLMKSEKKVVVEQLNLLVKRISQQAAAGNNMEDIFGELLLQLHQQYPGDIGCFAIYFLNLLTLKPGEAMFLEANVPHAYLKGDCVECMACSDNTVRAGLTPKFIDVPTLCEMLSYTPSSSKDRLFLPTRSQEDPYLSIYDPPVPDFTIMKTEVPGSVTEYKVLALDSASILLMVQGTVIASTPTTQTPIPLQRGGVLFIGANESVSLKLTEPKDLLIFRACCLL", "UniProt Q9Y2Z2": "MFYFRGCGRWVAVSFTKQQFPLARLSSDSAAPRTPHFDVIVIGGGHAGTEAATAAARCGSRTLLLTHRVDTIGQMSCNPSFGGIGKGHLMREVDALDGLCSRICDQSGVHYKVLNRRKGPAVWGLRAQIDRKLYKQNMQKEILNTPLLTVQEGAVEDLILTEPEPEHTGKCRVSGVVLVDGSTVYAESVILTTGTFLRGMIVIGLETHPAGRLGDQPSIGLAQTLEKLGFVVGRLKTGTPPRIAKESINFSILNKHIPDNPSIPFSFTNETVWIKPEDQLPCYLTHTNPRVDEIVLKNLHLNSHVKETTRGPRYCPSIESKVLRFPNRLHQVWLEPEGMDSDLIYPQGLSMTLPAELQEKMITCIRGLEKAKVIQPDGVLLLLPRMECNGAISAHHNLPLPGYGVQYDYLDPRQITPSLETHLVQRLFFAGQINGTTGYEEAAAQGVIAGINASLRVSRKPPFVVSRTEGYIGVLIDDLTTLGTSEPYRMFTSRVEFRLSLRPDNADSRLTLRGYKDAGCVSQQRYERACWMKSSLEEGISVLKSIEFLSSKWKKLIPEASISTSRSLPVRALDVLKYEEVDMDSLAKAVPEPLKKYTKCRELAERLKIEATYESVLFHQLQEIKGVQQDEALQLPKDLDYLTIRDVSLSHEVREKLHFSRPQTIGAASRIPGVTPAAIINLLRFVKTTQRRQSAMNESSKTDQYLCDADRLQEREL", "UniProt P82909": "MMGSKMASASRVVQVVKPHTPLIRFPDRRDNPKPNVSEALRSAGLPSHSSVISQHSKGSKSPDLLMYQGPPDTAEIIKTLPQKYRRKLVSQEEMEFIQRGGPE", "UniProt P41218": "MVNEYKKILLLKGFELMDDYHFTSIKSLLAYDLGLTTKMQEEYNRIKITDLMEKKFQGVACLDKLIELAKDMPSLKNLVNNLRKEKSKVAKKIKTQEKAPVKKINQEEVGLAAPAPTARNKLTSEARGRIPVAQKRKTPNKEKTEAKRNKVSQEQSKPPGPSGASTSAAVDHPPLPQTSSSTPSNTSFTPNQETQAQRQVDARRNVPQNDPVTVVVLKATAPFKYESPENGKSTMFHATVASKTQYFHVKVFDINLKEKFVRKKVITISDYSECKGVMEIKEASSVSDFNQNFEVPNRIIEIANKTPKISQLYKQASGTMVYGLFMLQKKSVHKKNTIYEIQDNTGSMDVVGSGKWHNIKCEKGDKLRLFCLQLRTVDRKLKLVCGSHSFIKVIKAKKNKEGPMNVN", "UniProt Q99547": "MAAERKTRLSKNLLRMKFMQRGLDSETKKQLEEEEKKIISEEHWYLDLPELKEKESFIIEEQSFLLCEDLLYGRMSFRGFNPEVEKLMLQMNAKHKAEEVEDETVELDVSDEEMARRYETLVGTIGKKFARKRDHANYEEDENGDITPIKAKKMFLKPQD", "UniProt Q9UHV7": "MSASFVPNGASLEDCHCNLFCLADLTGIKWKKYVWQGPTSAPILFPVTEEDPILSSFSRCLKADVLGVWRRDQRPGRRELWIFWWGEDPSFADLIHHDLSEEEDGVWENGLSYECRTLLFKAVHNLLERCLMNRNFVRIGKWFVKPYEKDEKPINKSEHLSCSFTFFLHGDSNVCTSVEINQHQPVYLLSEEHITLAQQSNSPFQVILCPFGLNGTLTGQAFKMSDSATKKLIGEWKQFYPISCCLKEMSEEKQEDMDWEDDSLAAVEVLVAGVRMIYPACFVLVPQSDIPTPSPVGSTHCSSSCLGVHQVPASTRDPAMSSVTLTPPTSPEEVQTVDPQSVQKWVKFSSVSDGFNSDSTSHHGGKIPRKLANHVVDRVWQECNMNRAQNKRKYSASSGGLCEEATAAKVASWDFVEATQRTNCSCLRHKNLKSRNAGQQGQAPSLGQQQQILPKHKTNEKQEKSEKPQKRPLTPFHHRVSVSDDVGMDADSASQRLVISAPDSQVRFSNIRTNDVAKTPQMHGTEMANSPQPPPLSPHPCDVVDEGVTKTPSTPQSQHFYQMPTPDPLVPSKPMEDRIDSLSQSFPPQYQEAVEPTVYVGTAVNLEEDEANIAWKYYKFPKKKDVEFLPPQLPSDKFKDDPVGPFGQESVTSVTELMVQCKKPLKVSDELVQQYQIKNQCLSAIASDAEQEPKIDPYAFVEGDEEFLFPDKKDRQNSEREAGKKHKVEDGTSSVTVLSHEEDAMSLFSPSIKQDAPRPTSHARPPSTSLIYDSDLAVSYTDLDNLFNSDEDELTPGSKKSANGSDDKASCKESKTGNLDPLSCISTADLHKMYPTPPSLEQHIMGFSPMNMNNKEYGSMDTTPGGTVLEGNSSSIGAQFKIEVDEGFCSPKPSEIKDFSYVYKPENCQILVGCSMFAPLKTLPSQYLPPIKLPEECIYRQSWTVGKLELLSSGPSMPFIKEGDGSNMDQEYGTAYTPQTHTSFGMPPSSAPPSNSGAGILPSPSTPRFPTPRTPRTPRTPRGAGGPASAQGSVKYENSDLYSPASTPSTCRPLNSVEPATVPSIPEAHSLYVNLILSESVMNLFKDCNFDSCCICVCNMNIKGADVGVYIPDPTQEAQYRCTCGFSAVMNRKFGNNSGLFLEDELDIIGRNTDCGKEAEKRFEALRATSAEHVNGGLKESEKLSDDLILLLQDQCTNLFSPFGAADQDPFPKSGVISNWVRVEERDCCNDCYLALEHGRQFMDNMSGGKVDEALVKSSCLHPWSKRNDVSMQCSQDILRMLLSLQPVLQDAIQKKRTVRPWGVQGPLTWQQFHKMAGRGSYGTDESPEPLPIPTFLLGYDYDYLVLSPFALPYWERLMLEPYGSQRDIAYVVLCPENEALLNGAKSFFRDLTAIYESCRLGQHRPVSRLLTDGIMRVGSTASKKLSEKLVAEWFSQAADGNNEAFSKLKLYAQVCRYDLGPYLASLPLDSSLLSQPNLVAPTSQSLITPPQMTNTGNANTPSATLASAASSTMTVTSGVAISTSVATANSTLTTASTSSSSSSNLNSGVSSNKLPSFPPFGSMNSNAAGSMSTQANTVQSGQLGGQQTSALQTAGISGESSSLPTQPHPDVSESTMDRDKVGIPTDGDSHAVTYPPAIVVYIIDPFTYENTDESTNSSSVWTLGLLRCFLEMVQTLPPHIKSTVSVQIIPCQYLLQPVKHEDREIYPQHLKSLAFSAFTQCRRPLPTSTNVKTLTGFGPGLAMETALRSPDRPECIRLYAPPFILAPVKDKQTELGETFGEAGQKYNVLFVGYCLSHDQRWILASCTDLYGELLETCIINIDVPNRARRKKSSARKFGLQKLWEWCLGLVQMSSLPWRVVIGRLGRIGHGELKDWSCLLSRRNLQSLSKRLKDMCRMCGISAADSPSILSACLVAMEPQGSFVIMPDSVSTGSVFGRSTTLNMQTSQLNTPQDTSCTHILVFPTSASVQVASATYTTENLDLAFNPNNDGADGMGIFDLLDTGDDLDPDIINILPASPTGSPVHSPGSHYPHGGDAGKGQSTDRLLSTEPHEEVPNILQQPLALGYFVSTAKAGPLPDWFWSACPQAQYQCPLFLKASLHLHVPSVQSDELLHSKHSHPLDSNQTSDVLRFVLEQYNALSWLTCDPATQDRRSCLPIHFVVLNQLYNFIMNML", "UniProt O95544": "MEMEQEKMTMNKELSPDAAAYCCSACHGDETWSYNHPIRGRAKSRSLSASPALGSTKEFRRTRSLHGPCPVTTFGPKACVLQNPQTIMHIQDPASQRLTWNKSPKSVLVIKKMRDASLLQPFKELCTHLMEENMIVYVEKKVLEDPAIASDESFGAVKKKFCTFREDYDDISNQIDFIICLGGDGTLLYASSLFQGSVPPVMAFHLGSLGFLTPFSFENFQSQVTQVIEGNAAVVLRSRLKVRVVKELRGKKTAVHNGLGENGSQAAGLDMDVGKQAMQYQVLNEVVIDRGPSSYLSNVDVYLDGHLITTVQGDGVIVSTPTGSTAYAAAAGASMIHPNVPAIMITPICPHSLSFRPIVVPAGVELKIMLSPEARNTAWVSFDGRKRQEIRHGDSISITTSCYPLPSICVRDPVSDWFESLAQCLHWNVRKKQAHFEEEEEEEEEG"},
  "source": "the supplement of paper PMC7666118",
  "note": "The other results are listed elsewhere or left out.",
  "data": [
    {"compound": "COc1ccc(Cn2ccc3cc(C)c(C(=O)NO)cc32)cc1", "experiment": "dose-dependent thermal stabilisation call (2D-TPP, DLPTP, 10% FDR) (binary (1 = stabilised)); higher = stabilised by the compound", "conditions": "system: HL-60 intact cells; concentration range 0.04-10 µM", "procedure": "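2D thermal proteome profiling in intact HL-60 cells treated with BRD-3811 (0, 0.04, 0.29, 2, 10 uM) for 90 min at 37 C, then heated 3 min at one of 12 temperatures (42-63.9 C). Soluble protein was quantified by TMT10 MS. The value is the DLPTP call of the paper: dose-dependent thermal stabilisation over all temperatures at 10% FDR (F-test of a dose-response against a flat model); one experiment, one call per tested protein.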", "values": [
      {"target": "NADSYN1 (UniProt Q6IA69)", "dose-dependent thermal stabilisation call": "inactive: 0"},
      {"target": "MPZL1 (UniProt O95297)", "dose-dependent thermal stabilisation call": "inactive: 0"},
      {"target": "MRPL14 (UniProt Q6P1L8)", "dose-dependent thermal stabilisation call": "inactive: 0"},
      {"target": "MRPL44 (UniProt Q9H9J2)", "dose-dependent thermal stabilisation call": "inactive: 0"},
      {"target": "MED17 (UniProt Q9NVC6)", "dose-dependent thermal stabilisation call": "inactive: 0"},
      {"target": "MRPL11 (UniProt Q9Y3B7)", "dose-dependent thermal stabilisation call": "inactive: 0"},
      {"target": "MRPS21 (UniProt P82921)", "dose-dependent thermal stabilisation call": "inactive: 0"},
      {"target": "METTL2B (UniProt Q6P1Q9)", "dose-dependent thermal stabilisation call": "inactive: 0"},
      {"target": "MYL6B (UniProt P14649)", "dose-dependent thermal stabilisation call": "inactive: 0"},
      {"target": "MORG1 (UniProt Q9BRX9)", "dose-dependent thermal stabilisation call": "inactive: 0"},
      {"target": "MTMR6 (UniProt Q9Y217)", "dose-dependent thermal stabilisation call": "inactive: 0"},
      {"target": "MYSM1 (UniProt Q5VVJ2)", "dose-dependent thermal stabilisation call": "inactive: 0"},
      {"target": "MPI (UniProt P34949)", "dose-dependent thermal stabilisation call": "inactive: 0"},
      {"target": "NAAA (UniProt Q02083)", "dose-dependent thermal stabilisation call": "inactive: 0"},
      {"target": "MTRF1 (UniProt O75570)", "dose-dependent thermal stabilisation call": "inactive: 0"},
      {"target": "MRPL48 (UniProt Q96GC5)", "dose-dependent thermal stabilisation call": "inactive: 0"},
      {"target": "MUDENG (UniProt Q9H0R1)", "dose-dependent thermal stabilisation call": "inactive: 0"},
      {"target": "MTM1 (UniProt Q13496)", "dose-dependent thermal stabilisation call": "inactive: 0"},
      {"target": "MTO1 (UniProt Q9Y2Z2)", "dose-dependent thermal stabilisation call": "inactive: 0"},
      {"target": "MRPS30 (UniProt Q9NP92)", "dose-dependent thermal stabilisation call": "inactive: 0"},
      {"target": "MTDH (UniProt Q86UE4)", "dose-dependent thermal stabilisation call": "inactive: 0"},
      {"target": "MTHFR (UniProt P42898)", "dose-dependent thermal stabilisation call": "inactive: 0"},
      {"target": "MEF2D (UniProt Q14814)", "dose-dependent thermal stabilisation call": "inactive: 0"},
      {"target": "MRPS36 (UniProt P82909)", "dose-dependent thermal stabilisation call": "inactive: 0"},
      {"target": "MNDA (UniProt P41218)", "dose-dependent thermal stabilisation call": "inactive: 0"},
      {"target": "MRPL18 (UniProt Q9H0U6)", "dose-dependent thermal stabilisation call": "inactive: 0"},
      {"target": "MLL4", "dose-dependent thermal stabilisation call": "inactive: 0"},
      {"target": "MSI2 (UniProt Q96DH6)", "dose-dependent thermal stabilisation call": "inactive: 0"},
      {"target": "MRPL46 (UniProt Q9H2W6)", "dose-dependent thermal stabilisation call": "inactive: 0"},
      {"target": "MPHOSPH6 (UniProt Q99547)", "dose-dependent thermal stabilisation call": "inactive: 0"},
      {"target": "MRPL45 (UniProt Q9BRJ2)", "dose-dependent thermal stabilisation call": "inactive: 0"},
      {"target": "MEPCE (UniProt Q7L2J0)", "dose-dependent thermal stabilisation call": "inactive: 0"},
      {"target": "MRPS18B (UniProt Q9Y676)", "dose-dependent thermal stabilisation call": "inactive: 0"},
      {"target": "MED13 (UniProt Q9UHV7)", "dose-dependent thermal stabilisation call": "inactive: 0"},
      {"target": "NADK (UniProt O95544)", "dose-dependent thermal stabilisation call": "inactive: 0"},
      {"target": "N-PAC", "dose-dependent thermal stabilisation call": "inactive: 0"}
    ]}
  ]
}
